# Laboratory results taken from the supplement of paper PMC11438910.
# This is one part of the list. Only a few entries rise above the background.
# Key:
# Experiment in all cases: fluorescence intensity of antibody binding to polysaccharide-coupled beads; higher = stronger binding
# [1] = biological target: pneumococcal polysaccharide Pn22A
# Description: (§1)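 Recombinant rhesus-murine chimeric IgG1 antibodies were tested against antigen-coupled MagPlex beads in a 96-plex Luminex direct immunoassay (dLIA). The beads carried pneumococcal capsular polysaccharides of 93 serotypes plus C-polysaccharides. Antibody was added at 0.1–12,500 ng/mL for 1 h, then PE anti-mouse IgG, and net MFI was read on a Bio-Plex 3D. Only the rhesus variable regions are printed; constant regions are murine IgG1/kappa/lambda, and the signal peptide is MGWSCIILFLVATATGVHS.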
# [2] = biological target: pneumococcal polysaccharide Pn22F
# Description: as §1
# [3] = biological target: pneumococcal polysaccharide Pn23A
# Description: as §1
# [4] = biological target: pneumococcal polysaccharide Pn23B
# Description: as §1
# [5] = biological target: pneumococcal polysaccharide Pn23F
# Description: as §1
# [6] = biological target: pneumococcal polysaccharide Pn24A
# Description: as §1
# [7] = biological target: pneumococcal polysaccharide Pn24B
# Description: as §1
# [8] = biological target: pneumococcal polysaccharide Pn24F
# Description: as §1
# [9] = biological target: pneumococcal polysaccharide Pn25A
# Description: as §1
# [10] = biological target: pneumococcal polysaccharide Pn25F
# Description: as §1
# [11] = biological target: pneumococcal polysaccharide Pn27
# Description: as §1
# [12] = biological target: pneumococcal polysaccharide Pn28A
# Description: as §1
# [13] = biological target: pneumococcal polysaccharide Pn28F
# Description: as §1
# [14] = biological target: pneumococcal polysaccharide Pn29
# Description: as §1
# [15] = biological target: pneumococcal polysaccharide Pn3
# Description: as §1
# [16] = biological target: pneumococcal polysaccharide Pn31
# Description: as §1
# [17] = biological target: pneumococcal polysaccharide Pn32A
# Description: as §1
# [18] = biological target: pneumococcal polysaccharide Pn32F
# Description: as §1
# [19] = biological target: pneumococcal polysaccharide Pn33A
# Description: as §1
# [20] = biological target: pneumococcal polysaccharide Pn33B
# Description: as §1
# [21] = biological target: pneumococcal polysaccharide Pn33C
# Description: as §1
# [22] = biological target: pneumococcal polysaccharide Pn33D
# Description: as §1
# [23] = biological target: pneumococcal polysaccharide Pn33F
# Description: as §1
# [24] = antibody concentration 81.7561 ng/mL
# [25] = antibody concentration 437.17 ng/mL
# [26] = antibody concentration 2337.65 ng/mL
# [27] = antibody concentration 12500 ng/mL
# [28] = antibody concentration 0.1 ng/mL
# [29] = antibody concentration 0.534724 ng/mL
# [30] = antibody concentration 2.8593 ng/mL
# [31] = antibody concentration 15.2894 ng/mL
binder,measurement,setting,value
4-127.3 (protein) chain 1: QVQLQESGPGLVKPSETLSLTCAVSGYSISSGYGWSWIRQPPGKGLEWIGYIGGSSGSTNYNPSLKSRVTVSKDTSKNQFSLKLSSVTAADTAVYYCARADYCTSTTCYGPNRFDVWGPGVLVTVSS chain 2: QAAPTQSPSVSGSAGQSVTISCTGSSSDIGYYNGVSWYQHHPGKAPKLMIYEVSKRPSGVSNRFSGSKSGNTASLTISGLQAADEADYFCSSYAGSGTYIFGAGTRLTVL,fluorescence intensity,[1]; [24],21.5 MFI
same,fluorescence intensity,[1]; [25],22.5 MFI
same,fluorescence intensity,[1]; [26],24.5 MFI
same,fluorescence intensity,[1]; [27],39.5 MFI
same,fluorescence intensity,[2]; [28],31 MFI
same,fluorescence intensity,[2]; [29],31 MFI
same,fluorescence intensity,[2]; [30],32.8 MFI
same,fluorescence intensity,[2]; [31],34 MFI
same,fluorescence intensity,[2]; [24],32.2 MFI
same,fluorescence intensity,[2]; [25],30.5 MFI
same,fluorescence intensity,[2]; [26],34.2 MFI
same,fluorescence intensity,[2]; [27],41.8 MFI
same,fluorescence intensity,[3]; [28],23 MFI
same,fluorescence intensity,[3]; [29],29 MFI
same,fluorescence intensity,[3]; [30],28.8 MFI
same,fluorescence intensity,[3]; [31],27 MFI
same,fluorescence intensity,[3]; [24],28.5 MFI
same,fluorescence intensity,[3]; [25],33 MFI
same,fluorescence intensity,[3]; [26],42 MFI
same,fluorescence intensity,[3]; [27],59.5 MFI
same,fluorescence intensity,[4]; [28],28.5 MFI
same,fluorescence intensity,[4]; [29],33 MFI
same,fluorescence intensity,[4]; [30],30 MFI
same,fluorescence intensity,[4]; [31],32.5 MFI
same,fluorescence intensity,[4]; [24],30 MFI
same,fluorescence intensity,[4]; [25],31 MFI
same,fluorescence intensity,[4]; [26],33 MFI
same,fluorescence intensity,[4]; [27],36.5 MFI
same,fluorescence intensity,[5]; [28],19 MFI
same,fluorescence intensity,[5]; [29],20 MFI
same,fluorescence intensity,[5]; [30],17.5 MFI
same,fluorescence intensity,[5]; [31],18 MFI
same,fluorescence intensity,[5]; [24],19.8 MFI
same,fluorescence intensity,[5]; [25],21 MFI
same,fluorescence intensity,[5]; [26],21 MFI
same,fluorescence intensity,[5]; [27],30 MFI
same,fluorescence intensity,[6]; [28],18.2 MFI
same,fluorescence intensity,[6]; [29],16.5 MFI
same,fluorescence intensity,[6]; [30],16.5 MFI
same,fluorescence intensity,[6]; [31],16 MFI
same,fluorescence intensity,[6]; [24],16.5 MFI
same,fluorescence intensity,[6]; [25],16 MFI
same,fluorescence intensity,[6]; [26],17 MFI
same,fluorescence intensity,[6]; [27],24 MFI
same,fluorescence intensity,[7]; [28],20.5 MFI
same,fluorescence intensity,[7]; [29],18.5 MFI
same,fluorescence intensity,[7]; [30],19 MFI
same,fluorescence intensity,[7]; [31],19 MFI
same,fluorescence intensity,[7]; [24],19.5 MFI
same,fluorescence intensity,[7]; [25],20.5 MFI
same,fluorescence intensity,[7]; [26],21.5 MFI
same,fluorescence intensity,[7]; [27],36.5 MFI
same,fluorescence intensity,[8]; [28],17.8 MFI
same,fluorescence intensity,[8]; [29],20.2 MFI
same,fluorescence intensity,[8]; [30],19.5 MFI
same,fluorescence intensity,[8]; [31],17.8 MFI
same,fluorescence intensity,[8]; [24],18.5 MFI
same,fluorescence intensity,[8]; [25],20.8 MFI
same,fluorescence intensity,[8]; [26],27.8 MFI
same,fluorescence intensity,[8]; [27],32 MFI
same,fluorescence intensity,[9]; [28],25.2 MFI
same,fluorescence intensity,[9]; [29],26 MFI
same,fluorescence intensity,[9]; [30],24 MFI
same,fluorescence intensity,[9]; [31],24 MFI
same,fluorescence intensity,[9]; [24],25.5 MFI
same,fluorescence intensity,[9]; [25],25.5 MFI
same,fluorescence intensity,[9]; [26],29 MFI
same,fluorescence intensity,[9]; [27],38 MFI
same,fluorescence intensity,[10]; [28],31.5 MFI
same,fluorescence intensity,[10]; [29],30.5 MFI
same,fluorescence intensity,[10]; [30],30.5 MFI
same,fluorescence intensity,[10]; [31],31.5 MFI
same,fluorescence intensity,[10]; [24],31.5 MFI
same,fluorescence intensity,[10]; [25],32 MFI
same,fluorescence intensity,[10]; [26],32 MFI
same,fluorescence intensity,[10]; [27],42 MFI
same,fluorescence intensity,[11]; [28],17.8 MFI
same,fluorescence intensity,[11]; [29],17.5 MFI
same,fluorescence intensity,[11]; [30],17.5 MFI
same,fluorescence intensity,[11]; [31],17.8 MFI
same,fluorescence intensity,[11]; [24],17.5 MFI
same,fluorescence intensity,[11]; [25],19.8 MFI
same,fluorescence intensity,[11]; [26],23.5 MFI
same,fluorescence intensity,[11]; [27],76.5 MFI
same,fluorescence intensity,[12]; [28],28.5 MFI
same,fluorescence intensity,[12]; [29],27.5 MFI
same,fluorescence intensity,[12]; [30],27 MFI
same,fluorescence intensity,[12]; [31],28.5 MFI
same,fluorescence intensity,[12]; [24],28.2 MFI
same,fluorescence intensity,[12]; [25],27 MFI
same,fluorescence intensity,[12]; [26],29.2 MFI
same,fluorescence intensity,[12]; [27],35.5 MFI
same,fluorescence intensity,[13]; [28],30.5 MFI
same,fluorescence intensity,[13]; [29],31 MFI
same,fluorescence intensity,[13]; [30],30 MFI
same,fluorescence intensity,[13]; [31],30.5 MFI
same,fluorescence intensity,[13]; [24],31 MFI
same,fluorescence intensity,[13]; [25],31 MFI
same,fluorescence intensity,[13]; [26],33.8 MFI
same,fluorescence intensity,[13]; [27],58.2 MFI
same,fluorescence intensity,[14]; [28],17.5 MFI
same,fluorescence intensity,[14]; [29],15.2 MFI
same,fluorescence intensity,[14]; [30],16.8 MFI
same,fluorescence intensity,[14]; [31],17.5 MFI
same,fluorescence intensity,[14]; [24],17 MFI
same,fluorescence intensity,[14]; [25],19 MFI
same,fluorescence intensity,[14]; [26],22 MFI
same,fluorescence intensity,[14]; [27],57.5 MFI
same,fluorescence intensity,[15]; [28],17 MFI
same,fluorescence intensity,[15]; [29],24.5 MFI
same,fluorescence intensity,[15]; [30],64.2 MFI
same,fluorescence intensity,[15]; [31],256 MFI
same,fluorescence intensity,[15]; [24],901 MFI
same,fluorescence intensity,[15]; [25],2830 MFI
same,fluorescence intensity,[15]; [26],8550 MFI
same,fluorescence intensity,[15]; [27],6870 MFI
same,fluorescence intensity,[16]; [28],15 MFI
same,fluorescence intensity,[16]; [29],14.2 MFI
same,fluorescence intensity,[16]; [30],14 MFI
same,fluorescence intensity,[16]; [31],15.5 MFI
same,fluorescence intensity,[16]; [24],14 MFI
same,fluorescence intensity,[16]; [25],16 MFI
same,fluorescence intensity,[16]; [26],18 MFI
same,fluorescence intensity,[16]; [27],58 MFI
same,fluorescence intensity,[17]; [28],18.5 MFI
same,fluorescence intensity,[17]; [29],19 MFI
same,fluorescence intensity,[17]; [30],16.5 MFI
same,fluorescence intensity,[17]; [31],18 MFI
same,fluorescence intensity,[17]; [24],18.5 MFI
same,fluorescence intensity,[17]; [25],20.5 MFI
same,fluorescence intensity,[17]; [26],21 MFI
same,fluorescence intensity,[17]; [27],36.8 MFI
same,fluorescence intensity,[18]; [28],28.5 MFI
same,fluorescence intensity,[18]; [29],28.8 MFI
same,fluorescence intensity,[18]; [30],30.5 MFI
same,fluorescence intensity,[18]; [31],28.8 MFI
same,fluorescence intensity,[18]; [24],29.5 MFI
same,fluorescence intensity,[18]; [25],32.2 MFI
same,fluorescence intensity,[18]; [26],35.8 MFI
same,fluorescence intensity,[18]; [27],58 MFI
same,fluorescence intensity,[19]; [28],19 MFI
same,fluorescence intensity,[19]; [29],18.5 MFI
same,fluorescence intensity,[19]; [30],18.8 MFI
same,fluorescence intensity,[19]; [31],19 MFI
same,fluorescence intensity,[19]; [24],18.5 MFI
same,fluorescence intensity,[19]; [25],19.5 MFI
same,fluorescence intensity,[19]; [26],35.2 MFI
same,fluorescence intensity,[19]; [27],166 MFI
same,fluorescence intensity,[20]; [28],19 MFI
same,fluorescence intensity,[20]; [29],17.5 MFI
same,fluorescence intensity,[20]; [30],18.2 MFI
same,fluorescence intensity,[20]; [31],18.5 MFI
same,fluorescence intensity,[20]; [24],19.5 MFI
same,fluorescence intensity,[20]; [25],18 MFI
same,fluorescence intensity,[20]; [26],20.2 MFI
same,fluorescence intensity,[20]; [27],21.5 MFI
same,fluorescence intensity,[21]; [28],20.2 MFI
same,fluorescence intensity,[21]; [29],20.5 MFI
same,fluorescence intensity,[21]; [30],20 MFI
same,fluorescence intensity,[21]; [31],19.8 MFI
same,fluorescence intensity,[21]; [24],19 MFI
same,fluorescence intensity,[21]; [25],20.2 MFI
same,fluorescence intensity,[21]; [26],21 MFI
same,fluorescence intensity,[21]; [27],34.5 MFI
same,fluorescence intensity,[22]; [28],16 MFI
same,fluorescence intensity,[22]; [29],17 MFI
same,fluorescence intensity,[22]; [30],17 MFI
same,fluorescence intensity,[22]; [31],17 MFI
same,fluorescence intensity,[22]; [24],16.5 MFI
same,fluorescence intensity,[22]; [25],16.2 MFI
same,fluorescence intensity,[22]; [26],18 MFI
same,fluorescence intensity,[22]; [27],21.2 MFI
same,fluorescence intensity,[23]; [28],13.2 MFI
same,fluorescence intensity,[23]; [29],13.5 MFI
same,fluorescence intensity,[23]; [30],12.5 MFI
same,fluorescence intensity,[23]; [31],13 MFI
same,fluorescence intensity,[23]; [24],14 MFI
same,fluorescence intensity,[23]; [25],15 MFI
same,fluorescence intensity,[23]; [26],20.5 MFI
same,fluorescence intensity,[23]; [27],78.5 MFI

# At a glance, some entries already given:
binder,measurement,setting,value
4-127.3 (protein) chain 1: QVQLQESGPGLVKPSETLSLTCAVSGYSISSGYGWSWIRQPPGKGLEWIGYIGGSSGSTNYNPSLKSRVTVSKDTSKNQFSLKLSSVTAADTAVYYCARADYCTSTTCYGPNRFDVWGPGVLVTVSS chain 2: QAAPTQSPSVSGSAGQSVTISCTGSSSDIGYYNGVSWYQHHPGKAPKLMIYEVSKRPSGVSNRFSGSKSGNTASLTISGLQAADEADYFCSSYAGSGTYIFGAGTRLTVL,fluorescence intensity,[21]; [31],19.8 MFI
same,fluorescence intensity,[21]; [24],19 MFI

# Shown as tab-separated lines: part of the list above.
binder	measurement	setting	value
4-127.3 (protein) chain 1: QVQLQESGPGLVKPSETLSLTCAVSGYSISSGYGWSWIRQPPGKGLEWIGYIGGSSGSTNYNPSLKSRVTVSKDTSKNQFSLKLSSVTAADTAVYYCARADYCTSTTCYGPNRFDVWGPGVLVTVSS chain 2: QAAPTQSPSVSGSAGQSVTISCTGSSSDIGYYNGVSWYQHHPGKAPKLMIYEVSKRPSGVSNRFSGSKSGNTASLTISGLQAADEADYFCSSYAGSGTYIFGAGTRLTVL	fluorescence intensity	[7]; [27]	36.5 MFI
same	fluorescence intensity	[8]; [28]	17.8 MFI
